No constants are given. Whether binding was seen depends on the method and setting. Binding seen in cells or lysates may run through a third protein. Some results given as binding are weak or reduced against the parent protein; the word gives no strength.
Molecular target: integrin β3 (human (endogenous in HEL)) (UniProt P05106)
Test: proximity ligation; Duolink in situ PLA in unstimulated HEL cells (nontransfected or expressing RAP1B-WT, -G12E, -G12V, -G60R) plated on fibrinogen-coated coverslips (10 ug/mL, 30 min, 37°C), fixed and permeabilised; mouse monoclonal against integrin αIIbβ3 (clone P2) and rabbit polyclonal against talin-1; a dot when the probes are <40 nm apart

Protein sequences, listed by entry. Tags and fused reporters are not part of them. Residues count along the entry.
UniProt P05106, residues 27-788: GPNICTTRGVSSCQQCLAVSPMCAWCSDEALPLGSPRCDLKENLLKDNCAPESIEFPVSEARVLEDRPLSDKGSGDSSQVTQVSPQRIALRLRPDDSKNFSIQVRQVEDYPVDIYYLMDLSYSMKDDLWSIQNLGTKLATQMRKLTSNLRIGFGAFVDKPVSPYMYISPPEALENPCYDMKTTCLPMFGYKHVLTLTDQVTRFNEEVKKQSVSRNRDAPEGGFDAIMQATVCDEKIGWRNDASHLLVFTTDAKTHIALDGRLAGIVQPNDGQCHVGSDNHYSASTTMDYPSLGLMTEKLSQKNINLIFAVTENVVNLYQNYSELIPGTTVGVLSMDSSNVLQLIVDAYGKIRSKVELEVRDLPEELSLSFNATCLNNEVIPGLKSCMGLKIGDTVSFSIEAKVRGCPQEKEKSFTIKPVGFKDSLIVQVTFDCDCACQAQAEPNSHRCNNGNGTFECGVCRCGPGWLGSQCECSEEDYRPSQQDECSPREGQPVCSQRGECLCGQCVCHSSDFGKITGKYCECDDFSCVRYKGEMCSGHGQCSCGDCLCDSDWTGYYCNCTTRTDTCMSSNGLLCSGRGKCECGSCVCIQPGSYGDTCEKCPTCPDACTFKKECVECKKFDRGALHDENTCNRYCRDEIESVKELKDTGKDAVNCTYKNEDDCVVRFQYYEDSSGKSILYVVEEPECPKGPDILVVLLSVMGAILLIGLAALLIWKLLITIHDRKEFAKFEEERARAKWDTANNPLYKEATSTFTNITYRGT
UniProt Q9Y490: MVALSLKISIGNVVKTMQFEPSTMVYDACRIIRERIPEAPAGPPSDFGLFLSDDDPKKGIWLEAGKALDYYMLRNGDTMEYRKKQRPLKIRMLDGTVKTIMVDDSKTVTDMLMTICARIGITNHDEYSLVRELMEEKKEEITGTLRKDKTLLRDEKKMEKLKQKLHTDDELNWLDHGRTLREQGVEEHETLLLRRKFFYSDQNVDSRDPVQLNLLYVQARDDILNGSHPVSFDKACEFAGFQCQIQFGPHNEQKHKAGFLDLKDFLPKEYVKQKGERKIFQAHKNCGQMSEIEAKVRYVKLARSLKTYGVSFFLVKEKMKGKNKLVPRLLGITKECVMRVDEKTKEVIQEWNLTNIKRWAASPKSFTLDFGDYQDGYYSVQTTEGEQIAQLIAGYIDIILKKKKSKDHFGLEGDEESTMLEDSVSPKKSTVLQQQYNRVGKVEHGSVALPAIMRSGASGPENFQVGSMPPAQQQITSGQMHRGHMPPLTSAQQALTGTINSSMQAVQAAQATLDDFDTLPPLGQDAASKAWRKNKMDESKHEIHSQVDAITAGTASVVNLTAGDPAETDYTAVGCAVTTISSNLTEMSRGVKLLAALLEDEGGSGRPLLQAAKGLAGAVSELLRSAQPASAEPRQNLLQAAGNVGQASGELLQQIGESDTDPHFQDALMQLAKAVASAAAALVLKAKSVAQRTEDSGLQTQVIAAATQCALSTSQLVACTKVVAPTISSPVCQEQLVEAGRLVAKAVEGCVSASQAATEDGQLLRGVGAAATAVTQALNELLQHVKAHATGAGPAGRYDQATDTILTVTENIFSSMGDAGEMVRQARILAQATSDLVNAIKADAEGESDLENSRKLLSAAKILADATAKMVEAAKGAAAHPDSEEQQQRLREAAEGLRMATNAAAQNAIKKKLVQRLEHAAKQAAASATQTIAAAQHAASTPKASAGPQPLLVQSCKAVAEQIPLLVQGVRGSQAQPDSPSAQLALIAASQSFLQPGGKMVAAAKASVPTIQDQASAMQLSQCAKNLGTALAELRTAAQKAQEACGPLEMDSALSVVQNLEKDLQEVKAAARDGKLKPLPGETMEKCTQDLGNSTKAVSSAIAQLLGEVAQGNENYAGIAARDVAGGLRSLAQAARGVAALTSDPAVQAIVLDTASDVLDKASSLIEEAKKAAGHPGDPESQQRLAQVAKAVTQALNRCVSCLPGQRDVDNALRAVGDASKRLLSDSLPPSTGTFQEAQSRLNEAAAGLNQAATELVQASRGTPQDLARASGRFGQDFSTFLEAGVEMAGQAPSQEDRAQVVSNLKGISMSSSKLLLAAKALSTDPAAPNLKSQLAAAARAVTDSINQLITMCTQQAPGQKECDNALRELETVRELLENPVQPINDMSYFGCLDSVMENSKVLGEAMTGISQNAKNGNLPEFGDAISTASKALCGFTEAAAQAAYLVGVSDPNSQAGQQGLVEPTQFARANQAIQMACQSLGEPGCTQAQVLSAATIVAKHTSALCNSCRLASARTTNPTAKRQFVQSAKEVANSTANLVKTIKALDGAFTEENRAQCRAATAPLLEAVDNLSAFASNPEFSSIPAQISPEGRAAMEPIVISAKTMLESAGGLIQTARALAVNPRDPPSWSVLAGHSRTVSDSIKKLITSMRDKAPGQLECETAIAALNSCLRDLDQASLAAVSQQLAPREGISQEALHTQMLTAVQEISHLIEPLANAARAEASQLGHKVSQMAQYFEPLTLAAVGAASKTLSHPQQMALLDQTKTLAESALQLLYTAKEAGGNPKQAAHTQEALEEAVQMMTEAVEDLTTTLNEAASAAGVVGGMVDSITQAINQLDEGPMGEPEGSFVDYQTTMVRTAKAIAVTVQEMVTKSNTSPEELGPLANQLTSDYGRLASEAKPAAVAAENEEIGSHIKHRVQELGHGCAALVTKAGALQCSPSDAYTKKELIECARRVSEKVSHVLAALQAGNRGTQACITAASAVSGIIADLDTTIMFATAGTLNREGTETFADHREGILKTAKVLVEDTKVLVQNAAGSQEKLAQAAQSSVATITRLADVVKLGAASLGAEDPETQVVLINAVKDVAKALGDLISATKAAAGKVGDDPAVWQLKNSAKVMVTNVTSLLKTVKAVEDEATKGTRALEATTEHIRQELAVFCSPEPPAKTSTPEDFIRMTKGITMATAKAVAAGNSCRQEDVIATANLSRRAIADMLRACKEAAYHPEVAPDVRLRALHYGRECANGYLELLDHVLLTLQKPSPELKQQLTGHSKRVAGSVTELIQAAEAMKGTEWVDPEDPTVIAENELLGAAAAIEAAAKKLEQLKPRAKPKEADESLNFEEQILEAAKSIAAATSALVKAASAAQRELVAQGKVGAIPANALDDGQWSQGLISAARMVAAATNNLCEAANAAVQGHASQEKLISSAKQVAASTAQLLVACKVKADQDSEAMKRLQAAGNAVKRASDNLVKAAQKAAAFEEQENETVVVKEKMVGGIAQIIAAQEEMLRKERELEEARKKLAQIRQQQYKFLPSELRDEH

binding: binds
Substance: talin-1 (from UniProt Q9Y490 1-2541)

Source: PMC11364392
